Reference: publication PMC10928201
These are yes or no findings as the source states them, for the method shown. Binding seen in cells or lysates may run through a third protein. Here binding means that the protein was enriched with, or labelled near, the bait; the list need not be complete.

Amino acid sequences for entries named in this document (tags omitted). Residues count along the entry.
UniProt Q7L5D6: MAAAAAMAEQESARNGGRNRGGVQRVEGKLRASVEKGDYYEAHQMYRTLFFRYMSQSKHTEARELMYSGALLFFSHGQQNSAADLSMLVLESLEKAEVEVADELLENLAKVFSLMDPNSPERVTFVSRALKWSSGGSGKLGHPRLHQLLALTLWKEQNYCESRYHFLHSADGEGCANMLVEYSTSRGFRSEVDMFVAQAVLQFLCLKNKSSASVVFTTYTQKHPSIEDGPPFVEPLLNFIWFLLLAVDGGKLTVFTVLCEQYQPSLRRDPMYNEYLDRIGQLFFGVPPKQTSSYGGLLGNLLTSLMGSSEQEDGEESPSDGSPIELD
UniProt P0DMV8: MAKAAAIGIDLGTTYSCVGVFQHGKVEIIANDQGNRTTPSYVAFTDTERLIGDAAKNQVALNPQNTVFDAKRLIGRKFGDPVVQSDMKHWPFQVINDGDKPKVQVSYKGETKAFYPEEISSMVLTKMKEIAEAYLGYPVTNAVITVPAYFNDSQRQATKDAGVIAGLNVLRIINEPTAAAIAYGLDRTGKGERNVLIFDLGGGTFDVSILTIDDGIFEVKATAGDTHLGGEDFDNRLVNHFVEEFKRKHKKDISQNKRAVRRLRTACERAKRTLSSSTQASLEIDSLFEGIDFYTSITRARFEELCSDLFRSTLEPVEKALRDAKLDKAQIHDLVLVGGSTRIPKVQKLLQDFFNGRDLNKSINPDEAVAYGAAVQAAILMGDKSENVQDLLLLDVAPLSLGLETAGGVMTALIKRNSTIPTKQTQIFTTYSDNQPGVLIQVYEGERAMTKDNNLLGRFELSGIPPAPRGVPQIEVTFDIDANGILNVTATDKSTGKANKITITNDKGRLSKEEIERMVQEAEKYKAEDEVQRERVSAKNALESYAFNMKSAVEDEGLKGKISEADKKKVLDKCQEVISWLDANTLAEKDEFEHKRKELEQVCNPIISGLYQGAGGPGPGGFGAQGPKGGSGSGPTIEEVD
UniProt P11142: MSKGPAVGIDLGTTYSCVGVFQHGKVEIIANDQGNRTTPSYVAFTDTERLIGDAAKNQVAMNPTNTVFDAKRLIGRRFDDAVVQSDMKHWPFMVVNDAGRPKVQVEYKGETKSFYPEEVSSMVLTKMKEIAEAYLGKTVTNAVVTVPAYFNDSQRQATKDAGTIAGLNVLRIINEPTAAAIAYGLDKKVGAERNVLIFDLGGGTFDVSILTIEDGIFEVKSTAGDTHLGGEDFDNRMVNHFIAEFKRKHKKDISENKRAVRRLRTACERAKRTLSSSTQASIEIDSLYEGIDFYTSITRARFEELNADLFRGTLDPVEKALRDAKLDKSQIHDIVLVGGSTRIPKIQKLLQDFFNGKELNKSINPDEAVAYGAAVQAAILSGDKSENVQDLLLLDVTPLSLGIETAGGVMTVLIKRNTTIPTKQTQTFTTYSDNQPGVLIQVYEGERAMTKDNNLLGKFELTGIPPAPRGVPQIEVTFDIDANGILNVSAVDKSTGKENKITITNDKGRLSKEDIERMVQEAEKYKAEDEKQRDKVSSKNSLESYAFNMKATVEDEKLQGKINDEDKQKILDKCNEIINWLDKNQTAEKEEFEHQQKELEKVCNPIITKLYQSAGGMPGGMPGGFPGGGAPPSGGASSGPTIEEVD
UniProt P38646, residues 47-679: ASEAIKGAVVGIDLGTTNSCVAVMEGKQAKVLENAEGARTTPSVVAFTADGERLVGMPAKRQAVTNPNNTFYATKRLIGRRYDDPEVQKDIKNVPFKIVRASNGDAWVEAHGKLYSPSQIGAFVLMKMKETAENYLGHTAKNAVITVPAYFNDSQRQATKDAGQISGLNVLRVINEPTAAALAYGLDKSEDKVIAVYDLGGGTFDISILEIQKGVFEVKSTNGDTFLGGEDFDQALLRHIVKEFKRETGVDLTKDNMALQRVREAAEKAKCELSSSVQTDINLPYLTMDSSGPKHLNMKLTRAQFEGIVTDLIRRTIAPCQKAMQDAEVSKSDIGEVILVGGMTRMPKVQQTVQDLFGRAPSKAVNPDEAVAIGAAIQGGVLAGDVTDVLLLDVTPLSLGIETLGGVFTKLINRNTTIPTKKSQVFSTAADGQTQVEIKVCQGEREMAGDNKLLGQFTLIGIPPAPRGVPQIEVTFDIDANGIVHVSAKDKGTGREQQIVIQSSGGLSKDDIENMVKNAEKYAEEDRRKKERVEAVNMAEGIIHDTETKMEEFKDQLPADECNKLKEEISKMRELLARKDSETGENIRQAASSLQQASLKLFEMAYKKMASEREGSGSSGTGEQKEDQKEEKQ

B1: UBL-containing protein 4 A (UBL4A) (protein, UniProt P11441 1-157)
chain: MQLTVKALQGRECSLQVPEDELVSTLKQLVSEKLNVPVRQQRLLFKGKALADGKRLSDYSIGPNSKLNLVVKPLEKVLLEEGEAQRLADSPPPQVWQLISKVLARHFSAADASRVLEQLQRDYERSLSRLTLDDIERLASRFLHPEVTETMEKGFSK

Legend:
[1] = molecular target: GET4 (human (endogenous in HeLa)) (UniProt Q7L5D6); test: affinity purification with mass spectrometry; anti-GET4 or anti-BAG6 antibody on Dynabeads (4 mg beads per IP) with ER-Mito reporter cell lysate; DIA mass spectrometry, control IP against GET4 or BAG6 IP, pairwise t tests with 5% FDR, N = 4
[2] = molecular target: BAG6 (human (endogenous in HeLa)) (UniProt P46379); test: as above

Molecule	binding [1]	binding [2]
HSPA1A (from UniProt P0DMV8 1-641)	binds	–
HSPA8 (from UniProt P11142 1-646)	binds	binds
glucose-regulated protein 75 (GRP75) (from UniProt P38646 47-679)	–	binds
B1	binds	–
